These are yes or no findings as the source states them, for the method shown. Some entries that bind do so weakly or less than the wild type. For some of these results: Where a sequence is shown, tags or fusion partners need not be part of it.
Legend:
Assay in all cases: peptide or protein array; total protein of cell lysate (1 mg in 1 mL) of MCF10A, MCF7, T47D or MDA-MB231 over a chip with 160 pY peptide probes (10 replicates, alanine controls), overnight at 4°C; bound GRB2 detected with rabbit anti-GRB2 and Alexa 647 secondary antibody; only the target purified
[1] = molecular target: T1, CSF3R_787 tyrosine phosphopeptide probe (human)
T1 sequence (peptide, phosphotyrosine at the N-terminus (Y787)): YENLWF

The chains behind the UniProt entries cited, without tags or fusion partners. Where a name states a change or a piece, a line headed by the entry shows the natural chain unless it says otherwise.
UniProt P35568: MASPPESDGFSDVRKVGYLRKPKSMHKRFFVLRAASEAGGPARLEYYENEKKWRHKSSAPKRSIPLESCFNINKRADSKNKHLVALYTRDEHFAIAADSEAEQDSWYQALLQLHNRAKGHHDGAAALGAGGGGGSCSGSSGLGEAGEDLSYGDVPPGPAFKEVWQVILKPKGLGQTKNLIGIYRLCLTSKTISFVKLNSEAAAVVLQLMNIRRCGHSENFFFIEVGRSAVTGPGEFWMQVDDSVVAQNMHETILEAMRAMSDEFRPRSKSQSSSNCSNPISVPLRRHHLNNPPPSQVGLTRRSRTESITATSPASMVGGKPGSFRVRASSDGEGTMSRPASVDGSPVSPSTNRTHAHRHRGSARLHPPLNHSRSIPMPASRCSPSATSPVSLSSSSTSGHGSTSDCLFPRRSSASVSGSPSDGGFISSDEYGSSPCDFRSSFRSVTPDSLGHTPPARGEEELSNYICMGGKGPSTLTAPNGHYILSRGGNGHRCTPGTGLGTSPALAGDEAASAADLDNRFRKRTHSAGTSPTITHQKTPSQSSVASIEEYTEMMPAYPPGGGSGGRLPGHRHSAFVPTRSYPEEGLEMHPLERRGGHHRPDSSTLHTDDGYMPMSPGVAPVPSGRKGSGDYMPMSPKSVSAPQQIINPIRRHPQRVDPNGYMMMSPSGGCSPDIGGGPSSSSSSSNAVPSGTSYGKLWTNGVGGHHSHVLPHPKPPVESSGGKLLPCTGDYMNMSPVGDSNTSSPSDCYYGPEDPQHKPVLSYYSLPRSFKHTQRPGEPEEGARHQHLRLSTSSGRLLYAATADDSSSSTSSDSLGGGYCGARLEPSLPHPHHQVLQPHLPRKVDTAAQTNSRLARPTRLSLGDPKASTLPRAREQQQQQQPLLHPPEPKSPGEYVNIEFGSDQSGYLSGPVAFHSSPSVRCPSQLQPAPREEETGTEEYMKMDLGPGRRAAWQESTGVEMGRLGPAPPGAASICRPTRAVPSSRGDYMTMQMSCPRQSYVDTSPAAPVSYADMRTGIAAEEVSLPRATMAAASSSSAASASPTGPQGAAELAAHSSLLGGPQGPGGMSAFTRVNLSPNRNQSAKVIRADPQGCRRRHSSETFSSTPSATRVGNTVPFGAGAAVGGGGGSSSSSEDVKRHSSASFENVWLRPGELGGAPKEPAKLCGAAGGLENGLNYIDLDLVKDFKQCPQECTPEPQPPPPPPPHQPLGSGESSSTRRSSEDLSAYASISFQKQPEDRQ
UniProt P35590: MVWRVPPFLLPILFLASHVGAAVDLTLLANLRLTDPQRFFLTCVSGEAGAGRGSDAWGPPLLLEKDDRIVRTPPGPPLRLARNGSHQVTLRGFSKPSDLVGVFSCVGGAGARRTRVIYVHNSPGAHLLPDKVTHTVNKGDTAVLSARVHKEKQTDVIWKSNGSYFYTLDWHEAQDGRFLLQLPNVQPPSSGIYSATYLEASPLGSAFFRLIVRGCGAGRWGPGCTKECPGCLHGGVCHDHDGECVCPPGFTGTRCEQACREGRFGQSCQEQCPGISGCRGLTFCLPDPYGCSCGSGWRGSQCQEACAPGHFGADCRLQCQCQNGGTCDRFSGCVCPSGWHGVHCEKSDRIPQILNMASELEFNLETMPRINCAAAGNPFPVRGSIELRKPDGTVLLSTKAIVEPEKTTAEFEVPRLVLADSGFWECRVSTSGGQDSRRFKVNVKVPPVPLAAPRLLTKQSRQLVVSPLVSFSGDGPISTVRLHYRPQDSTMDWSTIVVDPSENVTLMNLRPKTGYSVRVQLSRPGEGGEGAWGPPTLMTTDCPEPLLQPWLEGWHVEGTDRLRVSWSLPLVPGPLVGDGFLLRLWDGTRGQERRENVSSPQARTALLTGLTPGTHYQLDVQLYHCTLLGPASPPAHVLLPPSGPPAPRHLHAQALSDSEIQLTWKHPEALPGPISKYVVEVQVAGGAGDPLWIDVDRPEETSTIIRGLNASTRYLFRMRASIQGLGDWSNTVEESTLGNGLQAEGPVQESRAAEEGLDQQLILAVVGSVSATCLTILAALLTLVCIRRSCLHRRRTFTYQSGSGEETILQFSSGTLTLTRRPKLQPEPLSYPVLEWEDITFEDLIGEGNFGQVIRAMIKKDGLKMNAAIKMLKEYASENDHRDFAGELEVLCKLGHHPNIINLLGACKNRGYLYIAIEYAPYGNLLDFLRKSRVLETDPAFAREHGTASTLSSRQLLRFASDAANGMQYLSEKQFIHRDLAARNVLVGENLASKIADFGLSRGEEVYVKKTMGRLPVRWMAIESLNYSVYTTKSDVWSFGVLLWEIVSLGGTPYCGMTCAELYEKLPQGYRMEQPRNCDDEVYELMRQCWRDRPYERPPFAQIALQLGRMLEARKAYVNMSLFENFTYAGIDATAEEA
UniProt O14654: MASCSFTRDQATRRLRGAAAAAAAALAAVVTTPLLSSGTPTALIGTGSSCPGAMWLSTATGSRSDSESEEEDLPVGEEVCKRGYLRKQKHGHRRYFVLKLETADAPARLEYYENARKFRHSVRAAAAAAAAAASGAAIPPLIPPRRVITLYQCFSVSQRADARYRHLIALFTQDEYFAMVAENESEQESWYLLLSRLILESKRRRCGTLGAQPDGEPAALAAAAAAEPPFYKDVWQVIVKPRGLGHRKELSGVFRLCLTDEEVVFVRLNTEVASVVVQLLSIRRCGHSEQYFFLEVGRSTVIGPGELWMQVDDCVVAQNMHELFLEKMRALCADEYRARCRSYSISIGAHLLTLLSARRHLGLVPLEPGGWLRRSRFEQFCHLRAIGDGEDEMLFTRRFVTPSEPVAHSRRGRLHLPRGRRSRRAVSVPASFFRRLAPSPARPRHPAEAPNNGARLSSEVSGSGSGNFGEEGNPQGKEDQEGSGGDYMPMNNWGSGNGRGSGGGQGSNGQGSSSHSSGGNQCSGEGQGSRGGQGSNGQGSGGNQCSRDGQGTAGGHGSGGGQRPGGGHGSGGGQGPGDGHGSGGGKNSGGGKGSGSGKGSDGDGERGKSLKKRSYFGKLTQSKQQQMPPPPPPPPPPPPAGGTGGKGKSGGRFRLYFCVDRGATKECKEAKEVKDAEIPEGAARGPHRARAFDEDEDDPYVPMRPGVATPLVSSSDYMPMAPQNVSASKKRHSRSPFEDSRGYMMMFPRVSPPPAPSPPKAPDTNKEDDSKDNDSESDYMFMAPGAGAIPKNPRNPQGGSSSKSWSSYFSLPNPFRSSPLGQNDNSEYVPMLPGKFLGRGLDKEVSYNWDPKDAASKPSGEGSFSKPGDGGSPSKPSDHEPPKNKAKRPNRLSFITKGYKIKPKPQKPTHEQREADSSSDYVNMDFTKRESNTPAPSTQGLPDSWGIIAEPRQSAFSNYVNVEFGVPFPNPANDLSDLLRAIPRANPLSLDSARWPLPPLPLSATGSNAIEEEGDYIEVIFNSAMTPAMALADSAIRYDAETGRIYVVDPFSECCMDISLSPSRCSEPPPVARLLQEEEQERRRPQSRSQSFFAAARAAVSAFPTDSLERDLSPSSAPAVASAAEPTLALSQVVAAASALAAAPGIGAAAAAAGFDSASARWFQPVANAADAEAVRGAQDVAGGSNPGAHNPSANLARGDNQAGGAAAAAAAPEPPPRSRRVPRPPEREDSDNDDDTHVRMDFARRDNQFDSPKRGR
UniProt P62993: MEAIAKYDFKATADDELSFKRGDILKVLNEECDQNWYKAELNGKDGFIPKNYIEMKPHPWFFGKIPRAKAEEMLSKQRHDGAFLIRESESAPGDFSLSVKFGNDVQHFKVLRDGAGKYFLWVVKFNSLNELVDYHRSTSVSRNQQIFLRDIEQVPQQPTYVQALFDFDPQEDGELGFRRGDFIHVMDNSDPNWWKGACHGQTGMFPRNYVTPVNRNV

[2] = molecular target: T2, FRS2_196 tyrosine phosphopeptide probe (human)
T2 sequence (peptide, phosphotyrosine at the N-terminus (Y196)): YVNTTG

[3] = molecular target: T3, IRS1_46 tyrosine phosphopeptide probe (human) (UniProt P35568)
T3 sequence (peptide, phosphotyrosine at the N-terminus (Y46)): YYENEK

[4] = molecular target: T4, SOS1_974 tyrosine phosphopeptide probe (human)
T4 sequence (peptide, phosphotyrosine at the N-terminus (Y974)): YQNQPY

[5] = molecular target: T5, IRS1_896 tyrosine phosphopeptide probe (human) (UniProt P35568)
T5 sequence (peptide, phosphotyrosine at the N-terminus (Y896)): YVNIEF

[6] = molecular target: T6, GSTP1_199 tyrosine phosphopeptide probe (human)
T6 sequence (peptide, phosphotyrosine at the N-terminus (Y199)): YVNLPI

[7] = molecular target: T7, PDGFRB_716 tyrosine phosphopeptide probe (human)
T7 sequence (peptide, phosphotyrosine at the N-terminus (Y716)): YSNALP

[8] = molecular target: T8, LAX1_373 tyrosine phosphopeptide probe (human)
T8 sequence (peptide, phosphotyrosine at the N-terminus (Y373)): YENVLT

[9] = molecular target: T9, NTAL_136 tyrosine phosphopeptide probe (human)
T9 sequence (peptide, phosphotyrosine at the N-terminus (Y136)): YQNFSK

[10] = molecular target: T10, PTPN11_279 tyrosine phosphopeptide probe (human)
T10 sequence (peptide, phosphotyrosine at the N-terminus (Y279)): YKNILP

[11] = molecular target: T11, DYST_959 tyrosine phosphopeptide probe (human)
T11 sequence (peptide, phosphotyrosine at the N-terminus (Y959)): YQNVLT

[12] = molecular target: T12, TIE1_1117 tyrosine phosphopeptide probe (UniProt P35590)
T12 sequence (peptide, phosphotyrosine at the N-terminus (Y1117)): YVNMSL

[13] = molecular target: T13, SPTAN1_2430 tyrosine phosphopeptide probe (human)
T13 sequence (peptide, phosphotyrosine at the N-terminus (Y2430)): YQNLTR

[14] = molecular target: T14, IRS4_921 tyrosine phosphopeptide probe (UniProt O14654)
T14 sequence (peptide, phosphotyrosine at the N-terminus (Y921)): YVNMDF

[15] = molecular target: T15, PTPRA_798 tyrosine phosphopeptide probe (human)
T15 sequence (peptide, phosphotyrosine at the N-terminus (Y798)): YANFK

[16] = molecular target: T16, SHC1_427 tyrosine phosphopeptide probe (human)
T16 sequence (peptide, phosphotyrosine at the N-terminus (Y427)): YVNIQN

Measured: binding

GRB2 (endogenous, from cell lysates) (from UniProt P62993 1-217)
binds: all assays above
